PubChem BioAssay AID743456, Peter MacCallum Cancer Centre | 2014

- Assay: 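Identify miRNAs tied to vorinostat resistance or sensitivity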 (primary screen)
- Cells: human HCT116-VR colon cancer cells, a vorinostat-resistant HCT116 line
- Reagents: miRNA mimic
- Time to read-out: about 3 days from transfection to readout; drug present for the last 24 h
- Treatment: vorinostat at 2.5 µM final for 24 h
- Read-out: 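Per-well live-cell protease fluorescence and caspase luminescence under 2.5 µM vorinostat for 24 h, scored as robust z-scores and against mock transfection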
- Scale: viability robust z-score: higher = more viable cells; caspase robust z-score: higher = more caspase activity, more apoptosis
- Call rule: 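a mimic counts as active if it lands in a lowered-viability class or a caspase-activation class; wells with too few cells without drug are left out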
The deposit covers 878 reagents; this is a part drawn at random. 27 of all reagents (3.1%) were called active. 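27 mimics are marked active, unlike an earlier stated count of 24; the viability threshold is described inconsistently.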 A number with no mark means an inactive call. Not all columns of the deposit are shown. Not stated in the record: the amount of reagent.

no.	miRNA	viability robust z-score	caspase robust z-score	viability hit class	caspase hit class
1	hsa-miR-185	-1.68	2.46	no change	no change
2	hsa-miR-181b	-0.42	1.27	no change	no change
3	hsa-miR-25*	-2.03	-0.82	no change	no change
4	hsa-miR-886-3p	-1.36	1.85	no change	no change
5	hsa-miR-139-3p	1.74	0.9	no change	no change
6	hsa-miR-885-3p	-1.16	3.7	no change	no change
7	hsa-miR-611	1.42	-0.55	no change	no change
8	hsa-miR-144*	-0.28	-0.56	no change	no change
9	hsa-miR-516a-5p	0.19	-0.61	no change	no change
10	hsa-miR-1251	0.78	1.7	no change	no change
11	hsa-miR-206	-0.72	1.47	no change	no change
12	hsa-miR-301a	0.73	-0.53	no change	no change
13	hsa-miR-1228*	0.2	-0.22	no change	no change
14	hsa-miR-411	-0.48	-0.63	no change	no change
15	hsa-miR-187*	1.11	-0.55	no change	no change
16	hsa-miR-518d-5p	0.97	1.22	no change	no change
17	hsa-miR-508-3p	-1.18	-0.8	no change	no change
18	hsa-miR-599	0.79	-0.25	no change	no change
19	hsa-miR-125a-5p	1.6	-0.99	no change	no change
20	hsa-miR-521	0.58	-0.7	no change	no change
21	hsa-miR-522	-1.29	0.86	no change	no change
22	hsa-miR-636	0.08	0.06	no change	no change
23	hsa-miR-200b	0.7	-0.14	no change	no change
24	hsa-miR-892a	-1.68	1.07	no change	no change
25	hsa-miR-520a-5p	-0.05	-0.86	no change	no change
26	hsa-miR-124*	-0.92	-0.07	no change	no change
27	hsa-miR-520e	0.22	2.29	no change	no change
28	hsa-miR-2052	0.52	0.06	no change	no change
29	hsa-miR-570	1.03	0.88	no change	no change
30	hsa-miR-138	-0.46	0.36	no change	no change
31	hsa-miR-32*	-0.18	0.4	no change	no change
32	hsa-miR-424*	1.04	-0.63	no change	no change
33	hsa-miR-27a	-1.2	-0.03	no change	no change
34	hsa-miR-130a	-0.12	1.13	no change	no change
35	hsa-miR-1262	-2.31	0.9	no change	no change
36	hsa-miR-144	0.54	-0.72	no change	no change
37	hsa-miR-450b-3p	-0.5	-0.6	no change	no change
38	hsa-miR-1979	-0.5	-0.55	no change	no change
39	hsa-miR-920	1.36	-0.3	no change	no change
40	hsa-miR-30e*	-0.96	-0.84	no change	no change
41	hsa-miR-649	-0.13	-0.66	no change	no change
42	hsa-miR-632	-0.95	0.78	no change	no change
43	hsa-miR-548c-5p	0.84	-0.53	no change	no change
44	hsa-miR-549	0.18	-0.62	no change	no change
45	hsa-miR-1205	-1.87	0.56	no change	no change
46	hsa-miR-323-3p	-0.88	0.84	no change	no change
47	hsa-miR-92b*	1.38	-0.12	no change	no change
48	hsa-miR-137	-1.7	-0.02	no change	no change
49	hsa-miR-515-5p	0.62	0.4	no change	no change
50	hsa-miR-1291	0.94	1.16	no change	no change
51	hsa-miR-1255a	0.6	4.89	no change	no change
52	hsa-miR-568	0.74	-0.52	no change	no change
53	hsa-miR-639	1.06	-0.31	no change	no change
54	hsa-miR-548d-5p	1.16	-0.12	no change	no change
55	hsa-miR-1181	0.15	1.14	no change	no change
56	hsa-miR-1207-3p	-1.89 (active)	5.65	no change	caspase activation
57	hsa-miR-654-5p	-2.57	1.75	no change	no change
58	hsa-miR-219-5p	1.5	-0.52	no change	no change
59	hsa-miR-1197	1.29	-0.26	no change	no change
60	hsa-miR-769-5p	-0.36	-0.98	no change	no change
61	hsa-miR-1208	-0.34	1.34	no change	no change
62	hsa-let-7b	-0.82	-0.4	no change	no change
63	hsa-miR-95	-0.22	-0.14	no change	no change

9 successive records from above, for reference:
no.	miRNA	viability robust z-score	caspase robust z-score	viability hit class	caspase hit class
46	hsa-miR-323-3p	-0.88	0.84	no change	no change
47	hsa-miR-92b*	1.38	-0.12	no change	no change
48	hsa-miR-137	-1.7	-0.02	no change	no change
49	hsa-miR-515-5p	0.62	0.4	no change	no change
50	hsa-miR-1291	0.94	1.16	no change	no change
51	hsa-miR-1255a	0.6	4.89	no change	no change
52	hsa-miR-568	0.74	-0.52	no change	no change
53	hsa-miR-639	1.06	-0.31	no change	no change
54	hsa-miR-548d-5p	1.16	-0.12	no change	no change
